Source: US20050130997A1, “Pyrimidinone viral polymerase inhibitors” (priority 2002, published 2005)
Some entries share one result that the patent states for a list of compounds.

The chains behind the UniProt entries cited, without tags or fusion partners. Residues count along the entry.
UniProt P26663, 2420-3010: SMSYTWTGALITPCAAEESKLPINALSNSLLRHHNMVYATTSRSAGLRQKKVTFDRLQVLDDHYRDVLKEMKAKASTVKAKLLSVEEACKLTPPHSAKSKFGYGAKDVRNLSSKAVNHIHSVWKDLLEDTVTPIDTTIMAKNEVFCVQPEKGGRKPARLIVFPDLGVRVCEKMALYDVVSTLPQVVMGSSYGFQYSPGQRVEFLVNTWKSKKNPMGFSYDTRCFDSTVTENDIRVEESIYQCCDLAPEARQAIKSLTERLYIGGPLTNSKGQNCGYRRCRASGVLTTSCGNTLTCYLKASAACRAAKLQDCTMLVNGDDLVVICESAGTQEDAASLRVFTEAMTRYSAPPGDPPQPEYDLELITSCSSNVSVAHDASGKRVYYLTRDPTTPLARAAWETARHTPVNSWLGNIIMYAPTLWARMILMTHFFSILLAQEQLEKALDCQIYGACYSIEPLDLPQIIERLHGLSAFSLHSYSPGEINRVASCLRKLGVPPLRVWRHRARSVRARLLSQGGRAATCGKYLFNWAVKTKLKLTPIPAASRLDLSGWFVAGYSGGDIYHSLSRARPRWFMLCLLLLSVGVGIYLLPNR

Biological target: T1, HCV RdRp (Hepatitis C virus genotype 1b, UniProt P26663)
T1 construct: The final NSSB enzyme concentration was 20 nM; made in house; host or cells: insect cells infected with recombinant baculovirus (as described in the cited WO 96/37619)
Test: Test for Inhibition of Hepatitis C Virus RdRp (poly(A)/oligo(U) polymerisation assay, [3H]-UTP incorporation)
Assay type: biochemical
Conditions: recombinant HCV RdRp 20 nM, poly(A) template, oligo(U)12 primer, 1 h at 22° C.

IC50, < 100 µM:
Cn1c(-c2sccc2NCC(=O)NCc2ccccc2)nc(C(=O)O)c(O)c1=O [Example 18, N^1-Benzyl-N^2-[2-(4-carboxy-5-hydroxy-1-methyl-6-oxo-1,6-dihydropyrimidin-2-yl)thiophen-3-yl]glycinamide]
Cn1c(-c2sccc2CCCCc2ccccc2)nc(C(=O)O)c(O)c1=O [Example 35, 5-Hydroxy-1-methyl-6-oxo-2-[3-(4-phenylbutyl)thien-2-yl]-1,6-dihydropyrimidine-4-carboxylic acid]
Cn1c(-c2sccc2NC/C=C/c2ccccc2)nc(C(=O)O)c(O)c1=O [Example 19, 5-Hydroxy-1-methyl-6-oxo-2-(3-{[(2E)-3-ohenylprop-2-enyl]amino}thien-2-yl)-1,6-dihydropyrimidine-4-carboxylic acid]
O=C(O)c1nc(-c2cccs2)n(Cc2ccccc2)c(=O)c1O [Example 44, 1-Benzyl-5-hydroxy-6-oxo-2-(thien-2-yl)-1,6-dihydropyrimidine-4-carboxylic acid]
